Laboratory results reported in patent publication US11821895B2, “Functional cortical organoids, methods of making, and uses thereof” (priority 2017, dated 2023).
At least one compound was matched to its structure with a doubt left.

Tested on: cortical organoids
Assay: Pharmacological perturbation of network activity in cortical organoids, multi-electrode array (MEA) recordings
Type: cell-based, human
[1] = 8-month-old organoids, 10 μM bicuculline

Structure (SMILES): CN1CCc2cc3c(cc2[C@H]1[C@@H]1OC(=O)c2c1ccc1c2OCO1)OCO3 [bicuculline]
- network bursts (synchrony): no changes
- number of bursts / burst activity: increased burst activity
- number of network events: increases the number of network events
- synchronous activity / synchrony indexes: no impact on synchrony indexes
- oscillatory network activity during network events (6-month-old organoids, 10 μM bicuculline): blocks oscillatory network activity but not the network event itself
- number of network-synchronized events [1]: increased the number of network-synchronized events
- oscillatory activity (subsequent reverberant peaks) [1]: abolished oscillatory activity
- peak population firing rates [1]: did not affect peak population firing rates
